Data taken from PubChem BioAssay AID504749, deposited by NCATS (2011).

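Malaria parasite (P. falciparum) lines kept in red blood cells; parasite DNA is measured by SYBR Green fluorescence after lysis, 72 h after compound addition. Each compound was titrated across a series from about 0.000037 to 29 µM. The number is the fitted AC50, the concentration giving a half-maximal change in signal; a lower value means higher potency, whether the curve shows a decrease or an increase. Calls follow the curve class and fit quality: every row here is inconclusive, covering signal-raising curves and weak, poorly fitted, partial or highest-dose-only inhibition curves.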

Values are in µM. All entries here are filed as inconclusive. These entries are mostly ones the record files as inconclusive; other results of the assay are not listed here. A potency from a partial, single-point or poor curve is only a rough figure.

structure: C=C1NC(=O)c2cc(CN(C)c3ccc(C(=O)N[C@@H](CCC(=O)O)C(=O)O)s3)ccc2N1
tested on / at: ICS
Potency (µM): 15.85
curve as filed: inhibitor, single point

structure: C=C1NC(=O)c2cc(CN(C)c3ccc(C(=O)N[C@@H](CCC(=O)O)C(=O)O)s3)ccc2N1
tested on / at: PAD
Potency (µM): 7.943
curve as filed: inhibitor, partial curve

structure: C=C1NC(=O)c2cc(CN(C)c3ccc(C(=O)N[C@@H](CCC(=O)O)C(=O)O)s3)ccc2N1
tested on / at: PC26
Potency (µM): 19.01
curve as filed: inhibitor, single point

structure: c1ccc2c(c1)Nc1ccccc1S2
tested on / at: CP297
Potency (µM): 5.358
curve as filed: inhibitor, partial curve

structure: c1ccc2c(c1)Nc1ccccc1S2
tested on / at: AA1029
Potency (µM): 11.22
curve as filed: inhibitor, single point

structure: c1ccc2c(c1)Nc1ccccc1S2
tested on / at: CP211
Potency (µM): 15.1
curve as filed: inhibitor, single point

structure: c1ccc2c(c1)Nc1ccccc1S2
tested on / at: HB3
Potency (µM): 8.912
curve as filed: inhibitor, single point

structure: c1ccc2c(c1)Nc1ccccc1S2
tested on / at: CP325
Potency (µM): 13.46
curve as filed: inhibitor, single point

structure: c1ccc2c(c1)Nc1ccccc1S2
tested on / at: CP256
Potency (µM): 10
curve as filed: inhibitor, single point

structure: c1ccc2c(c1)Nc1ccccc1S2
tested on / at: CP185
Potency (µM): 8.912
curve as filed: inhibitor, single point

structure: c1ccc2c(c1)Nc1ccccc1S2
tested on / at: CP192
Potency (µM): 16.94
curve as filed: inhibitor, partial curve, poor fit

structure: c1ccc2c(c1)Nc1ccccc1S2
tested on / at: CP194
Potency (µM): 12
curve as filed: inhibitor, partial curve

structure: c1ccc2c(c1)Nc1ccccc1S2
tested on / at: ATS95
Potency (µM): 7.08
curve as filed: inhibitor, partial curve

structure: c1ccc2c(c1)Nc1ccccc1S2
tested on / at: ATS189
Potency (µM): 8.912
curve as filed: inhibitor, single point

structure: c1ccc2c(c1)Nc1ccccc1S2
tested on / at: P94_40
Potency (µM): 6.31
curve as filed: inhibitor, partial curve

structure: c1ccc2c(c1)Nc1ccccc1S2
tested on / at: CP315
Potency (µM): 19.01
curve as filed: inhibitor, single point

structure: c1ccc2c(c1)Nc1ccccc1S2
tested on / at: CP252
Potency (µM): 8.912
curve as filed: inhibitor, partial curve

structure: c1ccc2c(c1)Nc1ccccc1S2
tested on / at: CP329
Potency (µM): 8.492
curve as filed: inhibitor, single point

structure: c1ccc2c(c1)Nc1ccccc1S2
tested on / at: CP268
Potency (µM): 13.46
curve as filed: inhibitor, single point

structure: c1ccc2c(c1)Nc1ccccc1S2
tested on / at: 7G8
Potency (µM): 6.31
curve as filed: inhibitor, partial curve

structure: c1ccc2c(c1)Nc1ccccc1S2
tested on / at: PAD
Potency (µM): 5.623
curve as filed: inhibitor, partial curve

structure: c1ccc2c(c1)Nc1ccccc1S2
tested on / at: CP203
Potency (µM): 21.33
curve as filed: inhibitor, single point

structure: c1ccc2c(c1)Nc1ccccc1S2
tested on / at: CP286
Potency (µM): 10
curve as filed: inhibitor, single point

structure: c1ccc2c(c1)Nc1ccccc1S2
tested on / at: C2A
Potency (µM): 7.08
curve as filed: inhibitor, partial curve, poor fit

structure: c1ccc2c(c1)Nc1ccccc1S2
tested on / at: CP262
Potency (µM): 9.528
curve as filed: inhibitor, partial curve

3 of the entries, repeated:

structure	tested on / at	Potency (µM)	curve as filed
c1ccc2c(c1)Nc1ccccc1S2	CP185	8.912	inhibitor, single point
c1ccc2c(c1)Nc1ccccc1S2	CP256	10	inhibitor, single point
c1ccc2c(c1)Nc1ccccc1S2	CP268	13.46	inhibitor, single point